In PubChem BioAssay AID1347075 (National Center for Advancing Translational Sciences (NCATS), 2019):
“And” between values parts separate entries of the source, which are not always exact repeats. Equal entries are not always repeated. Hit rate of the full screen: of about 400,000 compounds, about 5,500 (1.4%) were called active. This list was built around the results that the source calls inconclusive (neither active nor inactive); the mix of calls is not that of the screen. The call rests on the fitted dose curve; in most records, active means well fitted cell-killing curve with a large enough effect; inconclusive means small, poorly fitted or top-dose-only effect, or effect the other way; inactive means flat fitted curve, though single readings scatter. A potency beside an inconclusive call is a rough fit, not a confirmed value.
On the % scale 0 is the no-effect control and ±100 the full control effect; potency means the concentration at half of the fitted maximal effect.

Assay: qHTS assay for MDR1-selective chemotherapeutics: Primary screen using the parental adenocarcinoma cell KB-3-1; further: nearly all actives have a fitted effect of over 60% in size
Conditions: KB-3-1 viability, CellTiter-Glo ATP luminescence, 72 h; activity change, negative = cytotoxic: at 46.1 µM (top of the series)
Outline: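 Parental KB-3-1 adenocarcinoma cells in phenol-red-free DMEM with 10% FBS were pin-treated with compounds at several concentrations, incubated 72 h at 37 °C, and viability read by CellTiter-Glo luminescence; concentration-effect curves were fitted after normalization.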
For `O=C(CN1C(=O)NC(Cc2ccccc2)C1=O)NC(=O)NC1CCCCC1` (configuration not stated), the Potency was inconclusive: 25.9 µM [rising, single point].
With `NC(=O)c1c(NC(=O)c2ccccc2)sc2c1CCc1ccccc1-2` the Potency was “inactive”.
In the case of `Cc1ccnc(NC(=O)c2ccc3c(c2)NC(=O)C(C)S3)c1` (configuration not stated), the Potency is reported as active: 18.4 µM.
For `Cc1ccc(OCCn2cnc3cc([N+](=O)[O-])ccc3c2=O)cc1`, the Potency was inconclusive: 0.0517 µM [rising, full curve].
For `CC1Cc2ccccc2N1C(=O)CN1C(=O)NC(C)(c2ccc3c(c2)OCCO3)C1=O` (configuration not stated), the activity change, negative = cytotoxic was inconclusive: -45.2% [cytotoxic].
With `O=C(Nc1ccc(F)c(Cl)c1)c1cc(C2CCCCN2C(=O)c2cccs2)on1` (configuration not stated) the Potency was active: 23.1 µM.
With `CCOC(=O)[C@H]1[C@H]2COc3ccccc3[C@@H]2N2C(=O)c3ccc(Cl)cc3NC(=O)[C@@]12C` the Potency was inconclusive: 29.1 µM [cytotoxic, single point].
With `CCCCN(CC)CCNC(=O)c1cc2c(=O)[nH]c3ccc(C)cc3c2s1` the Potency was inconclusive: 18.4 µM [cytotoxic, single point].
In the case of `CCOC(=O)C(C)(C)N(Cc1cccc(C)c1)S(=O)(=O)c1cccc([N+](=O)[O-])c1`, the Potency is reported as active: 16.4 µM.
In the case of `CCN(c1ccccc1)S(=O)(=O)c1cccc(C(=O)NCCN2CCOCC2)c1`, the Potency is reported as “inactive”.
With `C=CCc1ccc(OCC(O)CN2CCc3ccccc3C2)c(OC)c1` (configuration not stated) the Potency was inconclusive: 25.9 µM [cytotoxic, single point].
In the case of `Cn1cc(C(=O)NC2CCCCC2)c(=O)c2cc(S(=O)(=O)N3CCCC3)ccc21`, the Potency is reported as “inactive”.
In the case of `COc1ccccc1CNc1nc(NCc2ccc(C(C)C)cc2)c2sccc2n1`, the Potency is reported as inconclusive: 29.1 µM [cytotoxic, single point].
With `CCOC(=O)Nc1ccc2c(c1)C(=NNC(N)=S)c1ccccc1-2` the Potency was inconclusive: 29.1 µM [cytotoxic, single point].
In the case of `CCOC(=O)c1cnc(-n2nc(C)cc2C)nc1Nc1ccc(O)cc1`, the Potency is reported as inconclusive: 3.26 µM [cytotoxic, full curve].
For `COc1ccc(N2C(=O)C3CCCN3C2c2cccc(OC)c2OC)cc1` (configuration not stated), the Potency was “inactive”.
With `CCOc1ccc(S(=O)(=O)N(CC(=O)Nc2cccnc2)c2ccc(F)cc2)cc1` the Potency was inconclusive: 29.1 µM [cytotoxic, single point].
In the case of `O=C(CC1C(=O)NCCN1C(=O)Nc1ccccc1)Nc1cccc(Cl)c1` (configuration not stated), the Potency is reported as inconclusive: 20.6 µM [rising, single point].
For `CCOC(=O)c1c(NC(=S)NCc2ccccc2)sc2c1CCN(C(=O)OCC)C2`, the Potency was inconclusive: 29.1 µM [cytotoxic, single point].
In the case of `O=c1c(C(c2ccc(Br)cc2)c2c(O)nc3n(c2=O)CCCS3)c(O)nc2n1CCCS2`, the Potency is reported as inconclusive: 18.4 µM [rising, single point].
For `CCOc1ccc(N2C(=O)CC(N(CCc3ccc(OC)c(OC)c3)C(=S)Nc3ccccc3)C2=O)cc1` (configuration not stated), the Potency was inconclusive: 18.4 µM [cytotoxic, single point].
For `Cc1ccc(C(=O)NNC(=S)NC(=O)c2ccco2)cc1`, the Potency was inconclusive: 29.1 µM [cytotoxic, single point].
With `O=C(Nc1ccc(F)cc1F)c1cccc(S(=O)(=O)N2CCCCC2)c1` the Potency was inconclusive: 23.1 µM [cytotoxic, single point].
With `COc1cc(NC(=O)Nc2nc(C(N)CCc3ccccc3)cs2)cc(OC)c1OC` (configuration not stated) the Potency was inconclusive: 29.1 µM [cytotoxic, single point].
With `COc1ccc(Cn2c(-c3ccc(C)cc3)c[n+]3ccccc23)cc1` the Potency was active: 3.26 µM.
With `O=C(NCc1ccc2c(c1)OCO2)c1cc([N+](=O)[O-])ccc1N1CCOCC1` the Potency was active: 5.17 µM.
With `CC(C)C1Oc2ccccc2N(CC(=O)NC2CCCCC2)C1=O` (configuration not stated) the Potency was inconclusive: 29.1 µM [cytotoxic, single point].
In the case of `CCc1c(C)nc2ncnn2c1N1CCCC(C(=O)NCc2ccco2)C1` (configuration not stated), the Potency is reported as inconclusive: 20.6 µM [cytotoxic, partial curve, poor fit].
With `COc1ccc(OC)c(NC(=O)CN2CCC(C(=O)c3ccc(C)cc3)CC2)c1` the Potency was inconclusive: 18.4 µM [cytotoxic, single point].
In the case of `CCN(CC)Cc1ccc(NC(=O)c2sc3cc(Cl)ccc3c2Cl)cc1`, the Potency is reported as inconclusive: 29.1 µM [cytotoxic, single point].
In the case of `C[n+]1ccccc1/C=C/c1c(F)cccc1F`, the Potency is reported as inconclusive: 16.4 µM [cytotoxic, partial curve, poor fit].
With `COc1ccc(OC)c(/C=C/c2c([N+](=O)[O-])c(=O)n(C)c(=O)n2C)c1` the Potency was active: 20.6 µM.
For `COc1ccc(C#Cc2c(-c3ccsc3)oc3ccc(N4CCOCC4)cc23)cc1`, the Potency was “inactive”.
In the case of `CCOC(=O)c1ccccc1NC(=O)c1c(-c2ccccc2)noc1C`, the Potency is reported as inconclusive: 29.1 µM [cytotoxic, single point].
For `CCCCc1nc2ccccc2c(=O)n1NC(=O)c1c(O)c2c(n(CC(C)C)c1=O)CCCC2`, the Potency was active: 4.61 µM.
With `CCCCn1c(=O)[nH]c(=O)c2c1nc(-c1ccc(OCC)cc1)n2CC` the Potency was “inactive”.
In the case of `Cc1coc2cc3oc(=O)c(CCC(=O)N4CCCCC4)c(C)c3cc12`, the Potency is reported as “inactive”.
In the case of `C=C1[C@@H](O)[C@@H]2O[C@]3(CC[C@H](/C=C/[C@@H](C)[C@@H]4CC(C)=CC5(O[C@H](C[C@@](C)(O)C(=O)OC)CC[C@H]5O)O4)O3)CC[C@H]2O[C@@H]1[C@@H](O)C[C@H](C)[C@H]1OC2(CCCCO2)CC[C@H]1C` (some centres not stated), the Potency is reported as inconclusive: 29.1 µM [cytotoxic, single point].
With `COc1ccc(-n2c(=S)[nH]c3cc(C(=O)Nc4cc(C(N)=O)ccc4OC)ccc3c2=O)c(OC)c1` the Potency was inconclusive: 20.6 µM [rising, single point].
In the case of `C=CC[n+]1c(/C=C2\C=Cc3cc(C)ccc3N2CC)ccc2ccccc21`, the Potency is reported as inconclusive: 32.6 µM [cytotoxic, single point].
In the case of `COc1ccc(C2Nc3ccccc3-n3c(-c4ccccc4)c4c(=O)n(C)c(=O)n(C)c4c32)cc1` (configuration not stated), the Potency is reported as inconclusive: 20.6 µM [cytotoxic, single point].
With `COc1ccc(Cc2[nH]n3c(=O)cc(C)nc3c2-c2ccccc2)cc1` the Potency was inconclusive: 29.1 µM [cytotoxic, single point].
For `COc1cccc(/C=N/NC(=O)c2ccoc2C)c1O`, the Potency was inconclusive: 20.6 µM [cytotoxic, partial curve, poor fit].
For `COc1cccc(-c2nnc(NC(=O)c3ccccc3Br)o2)c1`, the Potency was inconclusive: 32.6 µM [cytotoxic, single point].
With `COc1ccc(F)cc1C1=CC(=O)C[C@H](c2ccc3c(c2)OCO3)C1` the Potency was inconclusive: 20.6 µM [cytotoxic, partial curve, poor fit].
For `Cc1ccc2nc(C)c3c(c2c1)N(c1ccc(F)cc1)CC3`, the activity change, negative = cytotoxic was inconclusive: -11%.
With `Nc1cc[n+](CC(=O)c2ccc3c(c2)OCCO3)cc1` the Potency was inconclusive: 29.1 µM [cytotoxic, single point].
In the case of `O=C(NNC(=O)c1cccnc1SCc1cccc([N+](=O)[O-])c1)c1ccccn1`, the Potency is reported as inconclusive: 18.4 µM [cytotoxic, single point].
With `CCC(=O)N1CCc2cc(S(=O)(=O)N3CCN(c4ccccc4F)CC3)ccc21` the Potency was inconclusive: 29.1 µM [rising, single point].
With `COc1ccc(-c2cc(C(=O)Nc3cc(C)n(Cc4ccc(Cl)cc4)n3)no2)cc1OC` the Potency was “inactive”.
For `Cc1ccc(NC(=S)NCCC(c2ccccc2)c2ccccc2)c(C)c1`, the Potency was inconclusive: 29.1 µM [cytotoxic, single point].
For `COC(=O)c1cc(C)nc(Sc2ccccc2NC(C)=O)n1`, the Potency was inconclusive: 23.1 µM [rising, partial curve, poor fit].
In the case of `C=C(C)CNC(=S)NNC(=O)CCn1c2ccccc2c2ccccc21`, the Potency is reported as inconclusive: 29.1 µM [cytotoxic, single point].
For `Cc1ccc2c(c1)Cc1nc3ccccc3nc1-2`, the activity change, negative = cytotoxic was inconclusive: -30.6% [cytotoxic].
In the case of `CN1OC[C@@H]2CN(C(=O)C(C)(C)C)[C@H](c3cccc(N4CCOCC4)c3)C[C@@H]21`, the Potency is reported as inconclusive: 0.0082 µM [rising, full curve].
For `COc1ccc(C(=O)NC2CCN(CC(=O)Nc3c(C)cccc3C)CC2)cc1OC`, the Potency was “inactive”.
With `OC(c1ccccn1)(c1ccccn1)c1ccccn1` the Potency was “inactive”.
In the case of `Cc1nc(NC2=NCN(CCCN3CCOCC3)CN2)nc2c(C)cccc12`, the Potency is reported as active: 8.2 µM.
For `CC(C)c1ccccc1NC(=S)NC1CCCCC1`, the Potency was “inactive”.
With `COc1cc(NC(=O)c2c(F)c(F)c(OC)c(F)c2F)ccc1NC(=O)c1cccs1` the Potency was “inactive”.
With `Cc1nc([N+](=O)[O-])c(Br)n1CC(=O)c1ccc(Cl)cc1` the Potency was active: 18.4 µM.
For `Nn1c(SCC(=O)Nc2c(Cl)cccc2Cl)nncc1=O`, the Potency was “inactive”.
For `CSc1nc2ccc3nc(NC(=O)C4COc5ccccc5O4)sc3c2s1` (configuration not stated), the Potency was inconclusive: 23.1 µM [cytotoxic, single point].
In the case of `CC(=O)N1CC=C2C(C#N)=C(N)C(C#N)(C#N)C(CCc3ccccc3)C2C1` (configuration not stated), the Potency is reported as inconclusive: 8.2 µM [rising, partial curve, poor fit].
For `CC1=NOC(=O)/C1=C\c1ccc(-c2ccc(Cl)cc2Cl)o1`, the Potency was inconclusive: 18.4 µM [cytotoxic, single point].
For `COC(=O)C[C@@H]1C[C@H]2c3cc(NC(=O)Nc4ccccc4F)ccc3O[C@H]2[C@H](CO)O1`, the Potency was inconclusive: 18.4 µM [cytotoxic, partial curve, poor fit].
